Source: paper PMC12040169 (PLOS Biology, 2025)
The other results are listed elsewhere or left out.

What follows are compounds tested on T1, CTL2-GFP (C. trachomatis L2/434/Bu, GFP-expressing). Conditions: bulk GFP, single well; 28.5 h, 10 µM; inhibitor.
T1 construct: L2/434/Bu, GFP-expressing
Parameters: species or system HeLa; Intracellular C. trachomatis growth in HeLa cells, bulk GFP fluorescence relative to DMSO
For O=C(CN1C(=O)COc2ccc(Cl)cc21)Nc1cccc(C(=O)O)c1 [CBK269667], the “% of control remaining” value was 145.252%. O=c1c2sccc2nc2n1CCN(Cc1ccc(F)c(F)c1)CC2 [CBK282295] was tested, and the “% of control remaining” value was 103.294%. With O=C(O)CCC(=O)NNc1ccccc1[N+](=O)[O-] [CBK261546] the “% of control remaining” value was 118.19%. With CCc1nc2c(OCC(=O)c3ccc(Cl)cc3Cl)cccn2c1N(C)C(=O)C1CC1 [CBK147712] the “% of control remaining” value was 113.14%. CCOCCn1c(CN2CCOCC2)nc2c1c(=O)n(C)c(=O)n2C [CBK306062] was tested, and the “% of control remaining” value was 70.6624%. COc1ccc(C)cc1S(=O)(=O)n1ccc2c(CNC3CC(C)(C)NC(C)(C)C3)cccc21 [CBK113311T] was tested, and the “% of control remaining” value was 131.282%. Cc1ccc2c(c1)CC(=O)NC21CCN(Cc2cccc(Br)c2)CC1 [CBK039392] was tested, and the “% of control remaining” value was 118.76%. For O=C(Nc1ccc2oc(-c3cccnc3)nc2c1)c1sc2cc(Cl)ccc2c1Cl [CBK267876], the “% of control remaining” value was 131.67%. O=C(c1ccccc1)c1ccc2n1CCC2C(=O)N1CCN(c2ccccc2)CC1 (stereo not drawn) [CBK300536] was tested, and the “% of control remaining” value was 94.6451%. In the case of O=C(N/N=C/c1ccccn1)c1n[nH]c2c1CCCC2 [CBK262882], the “% of control remaining” value is reported as 100%. OCCCNC(c1ccccc1)c1ccc(O)cc1 (stereo not drawn) [CBK266329] was tested, and the “% of control remaining” value was 134.863%. COc1ccc(Cl)cc1NC(=O)CCCn1cnc([N+](=O)[O-])n1 [CBK268882] was tested, and the “% of control remaining” value was 148.139%. COCCn1c(SCc2cn3cc(Br)ccc3n2)nc(C)c1C [CBK305704] was tested, and the “% of control remaining” value was 103.723%. In the case of Cc1cc(C)c2c(OCC(=O)Nc3nc(C(N)=O)cs3)nn(C)c2n1 [CBK305530], the “% of control remaining” value is reported as 139.717%. CCn1cc(C2CN(S(=O)(=O)c3ccccc3OC(F)F)CCO2)cn1 (stereo not drawn) [CBK304234] was tested, and the “% of control remaining” value was 125.46%. CC(C)[C@@H](Cn1nnc2ccccc21)NC(=O)c1ccco1 [CBK282335] was tested, and the “% of control remaining” value was 87.9979%. COc1ccc(N2C(=O)CC(N3CCN(c4ccc(C(=O)c5cccnc5)cc4)CC3)C2=O)cc1 (stereo not drawn) [CBK268924] was tested, and the “% of control remaining” value was 145.73%. With CCc1cc2c3c(c(=O)oc2cc1OCc1cc(C(=O)O)oc1C)CCCC3 [CBK264402] the “% of control remaining” value was 140.887%. O=C(CC1(O)C(=O)Nc2ccccc21)CC1(O)C(=O)Nc2ccccc21 (stereo not drawn) [CBK263705] was tested, and the “% of control remaining” value was 100%. For CCN(Cc1cccnc1)C(CC1CCCCC1)c1ccccc1 (stereo not drawn) [CBK061673], the “% of control remaining” value was 93.2977%. CC(Cc1cccs1)NC(=O)c1cc2c([nH]c1=O)CCCCC2 (stereo not drawn) [CBK282523] was tested, and the “% of control remaining” value was 98.8205%. CN(C)CCCNC(=O)c1cc2cc(Cl)cc(Cl)c2oc1=O [CBK269132C] was tested, and the “% of control remaining” value was 129.465%. For COc1ccc(CN2C(=S)N(c3ccccc3)[C@H]3[C@@H]2[C@H]2OC(=O)[C@@H]3C[C@H]2O)cc1 [CBK288937], the “% of control remaining” value was 113.461%. With O=C(NCc1ccc(Cl)c(Cl)c1)c1cncc(-c2ccc(C(=O)N3CCOCC3)cc2)c1 [CBK158612] the “% of control remaining” value was 58.8733%. With Cc1cc(CSc2cccc(F)c2)no1 [CBK002916] the “% of control remaining” value was 113.459%. In the case of COc1ccccc1-c1ccc(CC2(C(=O)NCc3ccc(F)cc3)CCOCC2)cc1 [CBK286518], the “% of control remaining” value is reported as 92.4312%. Cc1n[nH]c(O)c1C(c1ccc(Br)o1)c1c(C)n[nH]c1O [CBK026150] was tested, and the “% of control remaining” value was 108.406%. For CN1CCN(CC(CC(=O)Nc2ccccc2)C(=O)O)CC1 (stereo not drawn) [CBK286746], the “% of control remaining” value was 137.089%. In the case of COc1ccc(-c2nnc(SCC(=O)Nc3cc(C(C)(C)C)no3)n2C2CCCCC2)cc1OC [CBK295131], the “% of control remaining” value is reported as 136.752%. For O=C(Nc1nc2ccccc2[nH]1)NC1CCCCC1 [CBK288210], the “% of control remaining” value was 128.213%. COc1cccc(-c2cc(C(=O)N3CCC(C)CC3)n[nH]2)c1 [CBK288109] was tested, and the “% of control remaining” value was 140.963%. Cc1ccc(C(=O)O)cc1NC(=O)C(=O)NCC(c1ccccc1)N(C)C (stereo not drawn) [CBK286777] was tested, and the “% of control remaining” value was 102.992%. CC(C)C(=O)N1CCC[C@@H]2NC(=O)c3ccccc3OCC/C=C/C[C@@H]21 [CBK292064] was tested, and the “% of control remaining” value was 137.783%. In the case of C=CCOc1cccc(CNc2nn[nH]n2)c1 [CBK267618], the “% of control remaining” value is reported as 80.2692%. In the case of COc1ccc(/N=C(/Nc2cccc(C(F)(F)F)c2)SC)cc1 [CBK018896I], the “% of control remaining” value is reported as 79.7421%. With CN(C)c1cccc(-c2cncc(NCc3ccco3)n2)c1 [CBK065555] the “% of control remaining” value was 117.751%. Cc1cc(C)n2c(SCC(=O)O)nnc2n1 [CBK027406] was tested, and the “% of control remaining” value was 107.576%. With COc1cc(/C=C2\N=C(c3cccs3)OC2=O)ccc1OCc1ccc(Cl)cc1 [CBK263176] the “% of control remaining” value was 136.988%. With CCCCN(C)c1c(CC)nc2ccc(C(=O)Nc3ccc(OC)c(OC)c3)cn12 [CBK145445] the “% of control remaining” value was 98.7795%. For c1ccc(-c2nc(-c3ccncc3)[nH]c2-c2ccccc2)cc1 [CBK291155], the “% of control remaining” value was 123.422%. For Cc1nn2c(=O)cc(C(=O)O)[nH]c2c1-c1ccccc1 [CBK287129], the “% of control remaining” value was 149.691%. In the case of c1ccc(CCCN2CCN(C3CCN(Cc4ccccc4)CC3)CC2)cc1 [CBK263457], the “% of control remaining” value is reported as 100%. With CC(C)(C)C(=O)N[C@H]1C[C@@H](Cc2cc(CO)on2)C1(C)C [CBK289260] the “% of control remaining” value was 110.213%. For COc1cccc(NC(=O)CN(c2cccc(C(C)=O)c2)S(C)(=O)=O)c1 [CBK267502], the “% of control remaining” value was 117.12%. In the case of O=C1N=C(NC2CC3CCC2C3)SC12CCC2 (stereo not drawn) [CBK073933], the “% of control remaining” value is reported as 208.296%. For N#Cc1nc(-c2ccco2)oc1N1CCN(C(=O)c2cc3c(s2)CCCCC3)CC1 [CBK240763], the “% of control remaining” value was 155.827%. CC(=O)N(C)c1nc(-c2cccc(N(C)C)c2)ccc1C(=O)NC1CCS(=O)(=O)C1 (stereo not drawn) [CBK076590] was tested, and the “% of control remaining” value was 117.902%. Cc1cccnc1C(NC(=O)C1CCN(CCOc2ccccc2)CC1)c1ccc(F)cc1 (stereo not drawn) [CBK147892] was tested, and the “% of control remaining” value was 181.992%. With O=C(N/N=C/c1c[nH]c2ccccc12)c1cc(-c2ccc3ccccc3c2)n[nH]1 [CBK262885] the “% of control remaining” value was 107.904%. With CCn1c(=O)oc2cc(NC(=O)NCCCc3csc(N)n3)ccc21 [CBK307633] the “% of control remaining” value was 123.214%. In the case of CCN(CC)C(=O)C1CCCN(C(=O)NCc2cnc(C)cn2)C1 (stereo not drawn) [CBK156122], the “% of control remaining” value is reported as 100.554%. With O=C([C@@H]1Cc2[nH]cnc2CN1Cc1cc2ccccc2o1)N1CCOCC1 [CBK288977] the “% of control remaining” value was 134.228%. For Cc1oc(C(=O)Nc2ccc(C(=O)O)cc2)cc1COc1ccccc1 [CBK263273], the “% of control remaining” value was 110.09%. For CCCC(=O)Nc1ccc(C(=O)N2CCN(C)CC2)cc1 [CBK304337], the “% of control remaining” value was 129.804%. CCOc1ccc(Cl)cc1CNc1nnnn1CC [CBK288128] was tested, and the “% of control remaining” value was 126.438%. COC(=O)c1ccc(/C=N/NC(=O)CCc2c(C)n[nH]c2C)cc1 [CBK262904] was tested, and the “% of control remaining” value was 85.7111%. CCCC(=O)N1CCC(c2nc(C3CCCC3)no2)C1 (stereo not drawn) [CBK285457] was tested, and the “% of control remaining” value was 82.1199%. In the case of O=C(Nc1ccc(N2CCCCC2)c(F)c1)C1CC(=O)N(C2CC2)C1 (stereo not drawn) [CBK281387], the “% of control remaining” value is reported as 87.6912%. For CCOC(=O)CN1CCC(Oc2nccnc2OCc2cc(C)on2)CC1 [CBK082960T], the “% of control remaining” value was 142.684%. CCCCOc1ccc(NC(=O)Nc2cc3cccnc3c(Br)n2)cc1 [CBK063291] was tested, and the “% of control remaining” value was 83.1601%. Cc1ccc(C(=O)C2CCN(S(=O)(=O)c3ccc(Cl)c(Cl)c3)CC2)cc1 [CBK019294] was tested, and the “% of control remaining” value was 126.619%. In the case of CC1(C)[C@H](Cc2cc(CO)on2)C[C@@H]1N(Cc1ccncc1)Cc1ccncc1 [CBK289233], the “% of control remaining” value is reported as 167.056%. For CS(=O)(=O)NC1CCN(C2CCc3c(F)cc(F)cc32)C1 (stereo not drawn) [CBK305101], the “% of control remaining” value was 103.201%. CCN(CC)S(=O)(=O)c1ccc(C(=O)NCc2ccc(OC)cc2)cc1 [CBK305844] was tested, and the “% of control remaining” value was 132.974%. NC(=O)c1sc2cc(C(F)(F)F)cnc2c1-c1cccs1 [CBK089891] was tested, and the “% of control remaining” value was 82.9909%. OC(CNCc1ccc2c(c1)OCO2)COc1ccc(SC(F)(F)F)cc1 (stereo not drawn) [CBK074691] was tested, and the “% of control remaining” value was 99.343%. COC(=O)c1cc(CN2CCCN(S(=O)(=O)c3ccc(C(=O)c4ccccc4)cc3)CC2)cn1C [CBK062770] was tested, and the “% of control remaining” value was 112.919%. For O=C(c1cccs1)N1CCOC(Cn2ccnc2)C1 (stereo not drawn) [CBK282256], the “% of control remaining” value was 119.985%. In the case of Cc1c(Cl)cccc1NC(=O)c1cnc2scc(C)n2c1=O [CBK287463], the “% of control remaining” value is reported as 108.759%. For CC(=O)N1C[C@@H](N(C)C)[C@H](c2cn(C)c3ccccc23)C1 [CBK285007], the “% of control remaining” value was 114.426%. For CN1CCN(CC(=O)Nc2cc(N3CCOCC3)ccc2[N+](=O)[O-])CC1 [CBK047475], the “% of control remaining” value was 99.3858%. In the case of O=C(O)c1cnc(Cl)c(Br)c1 [CBK026874], the “% of control remaining” value is reported as 94.5226%. With Cc1nnc(NC(=O)C2CCN(C(=O)c3cccc(F)c3)CC2)s1 [CBK307588] the “% of control remaining” value was 103.905%. In the case of O=[N+]([O-])c1ccc(OCCCNCCO)cc1 [CBK262244], the “% of control remaining” value is reported as 103.654%. O=C1Nc2ccc(-c3ccccc3F)cc2C(=O)N2CCN(C(=O)C3CCNCC3)C[C@H]12 [CBK289592] was tested, and the “% of control remaining” value was 154.832%. CCCC(=O)NCC(C)c1nsc(NS(=O)(=O)c2cccc(Cl)c2C)n1 (stereo not drawn) [CBK200053] was tested, and the “% of control remaining” value was 93.8622%. For O=C(O)c1cccc(Nc2nc(Nc3ccccc3)nc(N3CCCC3)n2)c1 [CBK286863], the “% of control remaining” value was 109.13%. In the case of COc1ccc2c(c1)nc1n2CCC1OC(C)=O (stereo not drawn) [CBK115379], the “% of control remaining” value is reported as 123.305%.
